Laboratory results reported in the supplement of paper PMC10849652.
The list shows a part of the results.

Amino acid sequences for entries named in this document (tags omitted). A change or cut given only in a name is not applied to a line headed by its entry.
UniProt Q5T5U3: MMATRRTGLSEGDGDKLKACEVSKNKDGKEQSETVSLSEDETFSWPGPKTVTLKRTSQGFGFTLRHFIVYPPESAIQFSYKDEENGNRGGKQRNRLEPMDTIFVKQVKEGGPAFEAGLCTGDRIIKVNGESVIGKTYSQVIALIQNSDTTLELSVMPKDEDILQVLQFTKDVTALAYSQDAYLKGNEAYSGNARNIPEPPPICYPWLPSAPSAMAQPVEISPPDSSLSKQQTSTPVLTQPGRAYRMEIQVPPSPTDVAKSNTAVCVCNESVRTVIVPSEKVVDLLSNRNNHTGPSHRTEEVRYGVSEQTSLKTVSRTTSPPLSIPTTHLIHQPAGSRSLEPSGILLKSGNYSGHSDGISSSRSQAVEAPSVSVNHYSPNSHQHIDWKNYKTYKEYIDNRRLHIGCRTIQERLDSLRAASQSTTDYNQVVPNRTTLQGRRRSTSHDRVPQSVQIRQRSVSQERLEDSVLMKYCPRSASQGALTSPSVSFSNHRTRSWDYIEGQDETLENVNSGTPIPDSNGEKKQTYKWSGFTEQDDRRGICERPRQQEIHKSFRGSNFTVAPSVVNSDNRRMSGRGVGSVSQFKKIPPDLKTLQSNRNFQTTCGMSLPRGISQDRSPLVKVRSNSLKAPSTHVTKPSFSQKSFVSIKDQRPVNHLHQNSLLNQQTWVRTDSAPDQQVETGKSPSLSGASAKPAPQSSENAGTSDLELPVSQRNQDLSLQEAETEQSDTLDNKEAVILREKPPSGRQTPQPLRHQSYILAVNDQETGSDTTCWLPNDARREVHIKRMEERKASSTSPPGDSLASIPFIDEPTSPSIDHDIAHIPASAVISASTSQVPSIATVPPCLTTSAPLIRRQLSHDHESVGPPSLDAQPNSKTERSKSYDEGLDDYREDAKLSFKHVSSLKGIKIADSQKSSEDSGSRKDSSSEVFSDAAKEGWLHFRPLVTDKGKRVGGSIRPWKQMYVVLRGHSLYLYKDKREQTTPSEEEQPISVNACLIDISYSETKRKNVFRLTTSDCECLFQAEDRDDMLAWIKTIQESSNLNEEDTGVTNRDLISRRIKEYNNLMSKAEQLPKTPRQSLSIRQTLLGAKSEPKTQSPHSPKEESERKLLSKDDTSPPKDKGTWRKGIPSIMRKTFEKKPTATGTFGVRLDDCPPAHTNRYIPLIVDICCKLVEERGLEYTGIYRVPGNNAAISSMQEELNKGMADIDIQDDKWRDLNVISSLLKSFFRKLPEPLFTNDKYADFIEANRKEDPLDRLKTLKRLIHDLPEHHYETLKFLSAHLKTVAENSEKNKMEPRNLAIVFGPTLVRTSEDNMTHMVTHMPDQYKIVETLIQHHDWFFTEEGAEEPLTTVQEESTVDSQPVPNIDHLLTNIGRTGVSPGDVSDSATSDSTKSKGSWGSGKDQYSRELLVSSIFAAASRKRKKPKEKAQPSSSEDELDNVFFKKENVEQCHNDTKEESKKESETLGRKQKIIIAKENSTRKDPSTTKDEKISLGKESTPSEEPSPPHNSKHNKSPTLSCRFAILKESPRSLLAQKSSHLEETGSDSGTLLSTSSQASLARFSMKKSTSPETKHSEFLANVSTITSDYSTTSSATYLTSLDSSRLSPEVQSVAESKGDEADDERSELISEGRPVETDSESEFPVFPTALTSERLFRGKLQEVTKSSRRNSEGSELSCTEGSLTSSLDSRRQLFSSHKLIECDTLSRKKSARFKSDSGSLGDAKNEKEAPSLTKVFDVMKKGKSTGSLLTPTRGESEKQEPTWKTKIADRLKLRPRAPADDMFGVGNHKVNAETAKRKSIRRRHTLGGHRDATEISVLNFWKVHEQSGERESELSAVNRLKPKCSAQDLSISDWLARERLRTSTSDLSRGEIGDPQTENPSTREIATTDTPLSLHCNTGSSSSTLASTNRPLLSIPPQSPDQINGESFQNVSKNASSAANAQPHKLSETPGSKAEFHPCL
UniProt P02656: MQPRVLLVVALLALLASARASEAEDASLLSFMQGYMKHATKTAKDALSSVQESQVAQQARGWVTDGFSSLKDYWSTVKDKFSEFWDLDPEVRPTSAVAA
UniProt Q92624: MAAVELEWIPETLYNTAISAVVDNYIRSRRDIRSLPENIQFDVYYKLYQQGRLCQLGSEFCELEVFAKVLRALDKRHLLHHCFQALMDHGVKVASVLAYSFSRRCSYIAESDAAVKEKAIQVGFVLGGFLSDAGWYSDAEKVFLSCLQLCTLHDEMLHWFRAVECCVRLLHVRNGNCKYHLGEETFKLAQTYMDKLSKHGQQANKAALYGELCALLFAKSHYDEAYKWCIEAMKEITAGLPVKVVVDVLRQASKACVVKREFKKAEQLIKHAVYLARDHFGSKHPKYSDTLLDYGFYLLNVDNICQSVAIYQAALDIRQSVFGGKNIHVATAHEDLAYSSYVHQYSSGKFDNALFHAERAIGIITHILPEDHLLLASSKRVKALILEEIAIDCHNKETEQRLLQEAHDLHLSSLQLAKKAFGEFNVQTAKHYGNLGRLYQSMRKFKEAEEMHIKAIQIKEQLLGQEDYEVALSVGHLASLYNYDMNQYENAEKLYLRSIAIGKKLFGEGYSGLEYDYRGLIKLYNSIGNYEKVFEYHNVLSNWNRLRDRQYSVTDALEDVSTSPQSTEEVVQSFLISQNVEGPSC
UniProt Q86W74: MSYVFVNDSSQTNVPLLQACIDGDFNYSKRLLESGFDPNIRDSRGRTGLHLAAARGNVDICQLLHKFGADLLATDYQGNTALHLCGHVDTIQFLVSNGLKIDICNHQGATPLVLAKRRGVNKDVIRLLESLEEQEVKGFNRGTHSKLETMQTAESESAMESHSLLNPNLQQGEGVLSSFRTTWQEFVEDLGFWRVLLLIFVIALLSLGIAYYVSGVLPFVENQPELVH
UniProt Q9HCJ1: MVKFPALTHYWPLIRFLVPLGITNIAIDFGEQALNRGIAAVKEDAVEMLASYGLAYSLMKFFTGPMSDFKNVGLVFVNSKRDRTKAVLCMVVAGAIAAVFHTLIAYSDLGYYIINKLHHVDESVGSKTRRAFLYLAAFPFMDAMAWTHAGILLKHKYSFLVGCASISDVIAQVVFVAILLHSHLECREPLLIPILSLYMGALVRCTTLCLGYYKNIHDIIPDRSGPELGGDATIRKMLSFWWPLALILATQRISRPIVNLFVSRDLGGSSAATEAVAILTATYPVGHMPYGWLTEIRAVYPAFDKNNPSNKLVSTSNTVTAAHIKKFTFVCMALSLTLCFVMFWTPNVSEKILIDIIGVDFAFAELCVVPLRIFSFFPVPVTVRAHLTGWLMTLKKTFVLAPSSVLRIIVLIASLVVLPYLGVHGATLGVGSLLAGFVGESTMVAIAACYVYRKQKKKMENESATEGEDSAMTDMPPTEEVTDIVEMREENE
UniProt P98171: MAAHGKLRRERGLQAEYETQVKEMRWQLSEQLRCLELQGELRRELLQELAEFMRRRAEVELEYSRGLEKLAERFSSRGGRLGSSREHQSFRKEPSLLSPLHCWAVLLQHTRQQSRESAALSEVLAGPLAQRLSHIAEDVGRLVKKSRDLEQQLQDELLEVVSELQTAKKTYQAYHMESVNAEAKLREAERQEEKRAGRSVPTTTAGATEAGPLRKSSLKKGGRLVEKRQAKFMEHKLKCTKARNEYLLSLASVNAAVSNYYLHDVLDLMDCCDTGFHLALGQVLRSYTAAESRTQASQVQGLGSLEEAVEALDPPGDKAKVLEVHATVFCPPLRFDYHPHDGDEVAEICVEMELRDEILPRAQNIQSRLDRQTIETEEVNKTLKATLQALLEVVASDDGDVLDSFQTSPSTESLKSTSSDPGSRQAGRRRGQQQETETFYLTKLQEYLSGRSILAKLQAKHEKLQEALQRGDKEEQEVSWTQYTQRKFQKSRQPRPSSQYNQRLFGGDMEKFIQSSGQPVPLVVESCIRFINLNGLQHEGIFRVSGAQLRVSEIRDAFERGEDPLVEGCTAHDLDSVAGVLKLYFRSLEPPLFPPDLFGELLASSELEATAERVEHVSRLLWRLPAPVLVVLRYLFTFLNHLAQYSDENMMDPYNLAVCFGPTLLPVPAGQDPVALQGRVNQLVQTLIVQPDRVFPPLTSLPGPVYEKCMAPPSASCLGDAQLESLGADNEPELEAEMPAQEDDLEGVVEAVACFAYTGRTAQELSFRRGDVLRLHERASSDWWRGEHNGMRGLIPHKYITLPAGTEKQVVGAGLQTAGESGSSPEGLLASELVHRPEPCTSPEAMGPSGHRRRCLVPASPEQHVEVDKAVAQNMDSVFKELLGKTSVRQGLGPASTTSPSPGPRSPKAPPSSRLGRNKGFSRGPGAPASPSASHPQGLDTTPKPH
UniProt O75843: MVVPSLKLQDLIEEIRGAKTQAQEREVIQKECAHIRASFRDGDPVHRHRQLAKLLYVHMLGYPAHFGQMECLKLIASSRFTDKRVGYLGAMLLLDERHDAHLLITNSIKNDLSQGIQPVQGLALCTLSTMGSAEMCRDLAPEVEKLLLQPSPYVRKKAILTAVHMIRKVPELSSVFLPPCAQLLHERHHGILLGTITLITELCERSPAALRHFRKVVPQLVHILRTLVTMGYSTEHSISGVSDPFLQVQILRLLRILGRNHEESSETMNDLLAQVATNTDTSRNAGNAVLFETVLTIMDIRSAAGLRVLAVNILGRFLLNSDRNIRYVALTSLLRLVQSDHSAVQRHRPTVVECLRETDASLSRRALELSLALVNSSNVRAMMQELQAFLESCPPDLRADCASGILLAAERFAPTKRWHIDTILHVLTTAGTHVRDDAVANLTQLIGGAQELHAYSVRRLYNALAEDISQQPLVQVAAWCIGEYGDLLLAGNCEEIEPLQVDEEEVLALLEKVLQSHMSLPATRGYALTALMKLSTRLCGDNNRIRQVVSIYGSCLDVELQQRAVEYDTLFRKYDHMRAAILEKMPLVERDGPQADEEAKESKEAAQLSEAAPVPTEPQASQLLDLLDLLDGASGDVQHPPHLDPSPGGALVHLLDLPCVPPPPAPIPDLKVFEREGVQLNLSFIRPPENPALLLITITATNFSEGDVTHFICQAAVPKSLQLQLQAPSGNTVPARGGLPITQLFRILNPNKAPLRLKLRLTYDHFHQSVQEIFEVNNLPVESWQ
UniProt P02655: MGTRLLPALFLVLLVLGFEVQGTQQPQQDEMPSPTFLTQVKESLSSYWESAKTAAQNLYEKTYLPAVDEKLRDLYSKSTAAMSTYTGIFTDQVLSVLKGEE
UniProt Q10567: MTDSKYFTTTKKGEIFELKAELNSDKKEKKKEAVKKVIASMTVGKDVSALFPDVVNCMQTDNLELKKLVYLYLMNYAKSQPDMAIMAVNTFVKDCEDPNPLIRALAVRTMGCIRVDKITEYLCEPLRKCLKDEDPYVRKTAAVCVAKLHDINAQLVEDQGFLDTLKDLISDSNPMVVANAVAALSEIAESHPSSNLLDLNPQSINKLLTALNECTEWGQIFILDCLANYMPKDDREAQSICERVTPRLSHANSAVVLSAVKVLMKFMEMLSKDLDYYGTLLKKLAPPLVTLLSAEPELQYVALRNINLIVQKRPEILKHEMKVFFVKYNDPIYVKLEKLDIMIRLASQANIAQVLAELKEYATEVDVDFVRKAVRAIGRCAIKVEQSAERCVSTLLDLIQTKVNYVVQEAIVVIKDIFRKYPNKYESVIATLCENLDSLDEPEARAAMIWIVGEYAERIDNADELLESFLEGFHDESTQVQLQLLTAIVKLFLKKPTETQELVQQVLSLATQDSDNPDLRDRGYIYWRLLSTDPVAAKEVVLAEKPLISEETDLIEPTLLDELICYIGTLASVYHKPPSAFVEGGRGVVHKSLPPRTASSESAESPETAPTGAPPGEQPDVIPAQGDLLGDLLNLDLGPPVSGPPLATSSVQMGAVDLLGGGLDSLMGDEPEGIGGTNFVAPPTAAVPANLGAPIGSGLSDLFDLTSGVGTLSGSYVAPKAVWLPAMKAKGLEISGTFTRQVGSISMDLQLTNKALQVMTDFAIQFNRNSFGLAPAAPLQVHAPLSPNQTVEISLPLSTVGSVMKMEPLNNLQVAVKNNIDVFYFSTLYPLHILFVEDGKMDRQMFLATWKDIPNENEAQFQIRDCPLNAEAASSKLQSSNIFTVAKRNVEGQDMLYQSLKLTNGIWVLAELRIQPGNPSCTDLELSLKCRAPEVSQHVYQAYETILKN
UniProt O14791: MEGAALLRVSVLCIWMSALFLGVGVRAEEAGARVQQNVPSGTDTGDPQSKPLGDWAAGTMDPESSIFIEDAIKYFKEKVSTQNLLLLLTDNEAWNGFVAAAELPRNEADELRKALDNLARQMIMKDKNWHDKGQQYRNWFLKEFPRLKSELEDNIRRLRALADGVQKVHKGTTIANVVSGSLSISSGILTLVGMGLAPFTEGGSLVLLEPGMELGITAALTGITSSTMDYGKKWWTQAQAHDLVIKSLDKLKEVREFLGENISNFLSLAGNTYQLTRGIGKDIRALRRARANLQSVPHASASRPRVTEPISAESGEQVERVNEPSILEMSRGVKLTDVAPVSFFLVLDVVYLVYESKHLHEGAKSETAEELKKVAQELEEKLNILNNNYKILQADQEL

Key:
Assay in all cases: log2 fold change, soluble protein after heating vs DMSO (PISA); higher = thermal stabilisation; K562 cells, 10 uM, 30 min; active = over 0.2 and 3.5 SD of the protein, either way, in both replicates (recomputed)
[1] = compound: CS(=O)(=O)c1ccc(-c2cnc(N)c(C(=O)Nc3ccccc3)n2)cc1
Method in brief: (§1)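 Aliquots of K562 cells (2×10^6 cells/mL) treated with 10 μM compound for 30 min were heated for 3 min over 48°C-58°C. After pooling and extraction in PBS with 0.5% NP-40 at 4°C, soluble protein from a 21,000xg, 90 min spin was quantified by TMTpro 16plex LC-MS/MS with channel sums equalised. Thermal stability is expressed against control samples, from duplicates, as a log2 fold change.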

[2] = compound: C[C@H](C1=CC=C(C=C1)C(=O)NC2=C3C=CNC3=NC=C2)N
Method in brief: as §1

gandotinib = compound: Cc1cc(Nc2cc(CN3CCOCC3)c3nc(C)c(Cc4ccc(Cl)cc4F)n3n2)n[nH]1 [gandotinib]
Method in brief: as §1

tozasertib = compound: Cc1cc(Nc2cc(N3CCN(C)CC3)nc(Sc3ccc(NC(=O)C4CC4)cc3)n2)n[nH]1 [tozasertib]
Method in brief: as §1

ispinesib = compound: Cc1ccc(C(=O)N(CCCN)[C@@H](c2nc3cc(Cl)ccc3c(=O)n2Cc2ccccc2)C(C)C)cc1 [ispinesib]
Method in brief: as §1

[3] = compound: C[C@@H]1COCCN1C2=NC(=NC(=C2)C3(CC3)S(=O)(=O)C)C4=C5C=CNC5=CC=C4
Method in brief: as §1

crizotinib = compound: C[C@@H](Oc1cc(-c2cnn(C3CCNCC3)c2)cnc1N)c1c(Cl)ccc(F)c1Cl [crizotinib]
Method in brief: as §1

duvelisib = compound: C[C@H](Nc1ncnc2nc[nH]c12)c1cc2cccc(Cl)c2c(=O)n1-c1ccccc1 [duvelisib]
Method in brief: as §1

[4] = compound: Cc1cc(SCc2sc(-c3ccc(C(F)(F)F)cc3)nc2C)ccc1OCC(=O)O
Method in brief: as §1

doramapimod = compound: Cc1ccc(-n2nc(C(C)(C)C)cc2NC(=O)Nc2ccc(OCCN3CCOCC3)c3ccccc23)cc1 [doramapimod]
Method in brief: as §1

Measured: log2 fold change

ANKRD26 (UniProt Q9UPS8)
inactive: [1] -0.026 | [2] -0.008 | gandotinib -0.006 | tozasertib 0.113 | ispinesib -0.042

APP (UniProt P05067)
inactive: [1] -0.08 | [3] -0.078 | tozasertib 0.14 | ispinesib -0.019

APC (UniProt P25054)
inactive: crizotinib -0.369 | [3] -0.02 | [2] -0.008 | duvelisib -0.164 | tozasertib -0.002 | [4] -0.014 | doramapimod -0.09 | ispinesib -0.154

2 neighbouring records from above, quoted:
ANKRD26 (UniProt Q9UPS8)
inactive: [1] -0.026 | [2] -0.008 | gandotinib -0.006 | tozasertib 0.113 | ispinesib -0.042

APP (UniProt P05067)
inactive: [1] -0.08 | [3] -0.078 | tozasertib 0.14 | ispinesib -0.019

The list continues.

ANKRD11 (UniProt Q6UB99)
inactive: [1] 0.142 | ispinesib -0.422

APOBEC3B (UniProt Q9UH17)
inactive: crizotinib -0.161 | [2] 0.038 | doramapimod 0.153 | ispinesib -0.227

ANKRD13C (UniProt Q8N6S4)
inactive: [3] -0.053 | [2] 0.436 | tozasertib -0.05

ARHGAP21 (UniProt Q5T5U3)
inactive: [1] -0.029 | [3] -0.514 | [2] 0.326 | duvelisib 0.007 | gandotinib 0.077 | [4] -0.148 | ispinesib -0.158

APOC3 (UniProt P02656)
inactive: [1] 0.033 | [3] 0.355 | [2] 0.358 | duvelisib 0.264 | tozasertib 0.071 | [4] 0.044 | ispinesib 0.112

APOL2 (UniProt J3KQL8)
inactive: [1] 0.102 | [3] 0 | [2] -0.022 | duvelisib -0.064 | gandotinib -0.064 | tozasertib -0.038 | [4] 0.096

APPBP2 (UniProt Q92624)
inactive: crizotinib -0.108 | [2] 0.008 | duvelisib -0.09 | gandotinib 0.101 | tozasertib 0.061 | [4] -0.09 | doramapimod -0.114 | ispinesib 0.063

ANKRD27 (UniProt Q96NW4)
inactive: crizotinib -0.358 | doramapimod 0.052 | ispinesib -0.52

ARID4B (UniProt Q4LE39)
inactive: tozasertib 0.229

APBA2 (UniProt Q99767)
inactive: [3] 0.004

APOA4 (UniProt P06727)
inactive: [3] 0.1 | tozasertib -0.055 | ispinesib -0.053

ANKRD46 (UniProt Q86W74)
inactive: [1] 0.009 | [3] 0.047 | [2] -0.048 | duvelisib 0.038 | gandotinib -0.047 | tozasertib 0 | [4] 0.069 | ispinesib 0.063

ARHGAP35 (UniProt Q9NRY4)
inactive: crizotinib 0.058 | [3] -0.101 | [2] 0.183 | duvelisib -0.181 | gandotinib -0.144 | tozasertib 0.064 | [4] 0.069 | doramapimod -0.027 | ispinesib -0.212

ANKH (UniProt Q9HCJ1)
inactive: crizotinib 0.495 | duvelisib 0.164 | gandotinib 0.008 | [4] -0.139 | doramapimod -0.09 | ispinesib -0.258

ARHGAP4 isoform 2 (UniProt P98171)
inactive: [1] 0.023 | [2] 0.212 | [4] 0.131 | ispinesib -0.111

APLF (UniProt Q8IW19)
inactive: [2] 0.536

APOBEC3F (UniProt Q8IUX4)
inactive: crizotinib 0.138 | [3] -0.478 | [2] 0.145 | duvelisib -0.093 | [4] 0 | doramapimod 0.242 | ispinesib -0.228

ARHGAP5 (UniProt Q13017)
inactive: [3] 0.039 | [2] 0.13 | tozasertib 0.04 | ispinesib -0.057

APOD (UniProt P05090)
inactive: [1] 0.039 | [2] 0.029 | tozasertib 0.419

ANKLE2 (UniProt Q86XL3)
inactive: crizotinib -0.126 | doramapimod 0.055

Quoted at random: 2 entries already listed.
ARHGAP4 isoform 2 (UniProt P98171)
inactive: [1] 0.023 | [2] 0.212 | [4] 0.131 | ispinesib -0.111

APLF (UniProt Q8IW19)
inactive: [2] 0.536

Carrying on:

ARID1B isoform 3 (UniProt Q8NFD5)
inactive: ispinesib -0.225

AP1G2 (UniProt O75843)
inactive: [2] 0.489 | duvelisib -0.108 | [4] 0.029 | ispinesib -0.245

AREG (UniProt P15514)
inactive: crizotinib -0.226 | duvelisib 0.123 | [4] 0.322 | doramapimod -0.04

API5 isoform 1 (UniProt Q9BZZ5)
inactive: [3] -0.025 | [2] -0.268 | duvelisib 0.151 | tozasertib 0.188 | [4] -0.079

APOC2 (UniProt P02655)
inactive: crizotinib 0.008 | [2] 0.049 | duvelisib 0.13 | gandotinib -0.202 | [4] 0.095 | doramapimod -0.016

APH1B (UniProt Q8WW43)
inactive: [1] -0.068 | gandotinib 0.014

AP3M2 (UniProt P53677)
inactive: crizotinib -0.044 | [2] 0.131 | doramapimod 0.074

ANKRD36 (UniProt A6QL64)
inactive: [1] 0.069 | [3] 0.023 | duvelisib 0.116 | gandotinib 0.033 | tozasertib 0.015 | [4] 0.044

ARHGEF18 (UniProt Q6ZSZ5)
inactive: [1] -0.02 | [3] 0.067 | [2] 0.17 | duvelisib 0.051 | gandotinib 0.055 | tozasertib 0.071 | [4] -0.034 | ispinesib -0.07

AP1B1 isoform 3 (UniProt Q10567)
inactive: crizotinib 0.112 | [3] 0.081 | [2] 0.087 | duvelisib 0.103 | gandotinib 0 | tozasertib 0.085 | [4] -0.105 | doramapimod -0.068 | ispinesib 0.028

APOL1 isoform 2 (UniProt O14791)
inactive: [2] 0.27 | tozasertib 0.08

ANKRD52 (UniProt Q8NB46)
inactive: crizotinib -0.295 | [3] -0.081 | [2] -0.014 | duvelisib 0.661 | tozasertib 0.226 | [4] 0.11 | doramapimod 0.094 | ispinesib -0.174

ARHGAP25 isoform 4 (UniProt P42331)
inactive: [3] -0.066 | [2] 0.309 | gandotinib -0.056 | [4] 0.299
